These are yes or no findings as the source states them, for the method shown. Binding seen in cells or lysates may run through a third protein. A result given as binding can be weak or reduced; the word gives no strength.
What was measured:
Assay in all cases: co-IP; HEK293T cells co-transfected with Skor and Lhx expression plasmids (pCS2+), lysed 24 h later in 10 mM Tris pH 7.4, 150 mM NaCl, 0.5% NP40; antibody (anti-HA, anti-Myc or anti-Flag) on Dynabeads protein G, 4°C for 2 h, five washes with lysis buffer; immunoblot
Lhx1a (zebrafish) = target: T1, Lhx1a (zebrafish) (UniProt Q90476)
T1 sequence: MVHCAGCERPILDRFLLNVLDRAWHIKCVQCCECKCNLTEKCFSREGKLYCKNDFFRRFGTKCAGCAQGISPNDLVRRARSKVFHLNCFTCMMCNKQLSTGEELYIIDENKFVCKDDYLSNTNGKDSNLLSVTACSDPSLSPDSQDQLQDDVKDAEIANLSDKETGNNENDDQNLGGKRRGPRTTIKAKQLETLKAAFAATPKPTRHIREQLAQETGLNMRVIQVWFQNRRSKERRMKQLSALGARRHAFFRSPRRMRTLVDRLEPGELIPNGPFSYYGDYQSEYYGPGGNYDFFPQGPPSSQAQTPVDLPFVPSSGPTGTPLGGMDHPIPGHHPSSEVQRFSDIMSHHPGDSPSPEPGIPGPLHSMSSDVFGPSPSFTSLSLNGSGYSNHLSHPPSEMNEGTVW

Lhx1b (zebrafish) = target: T2, Lhx1b (zebrafish) (UniProt O13106)
T2 sequence: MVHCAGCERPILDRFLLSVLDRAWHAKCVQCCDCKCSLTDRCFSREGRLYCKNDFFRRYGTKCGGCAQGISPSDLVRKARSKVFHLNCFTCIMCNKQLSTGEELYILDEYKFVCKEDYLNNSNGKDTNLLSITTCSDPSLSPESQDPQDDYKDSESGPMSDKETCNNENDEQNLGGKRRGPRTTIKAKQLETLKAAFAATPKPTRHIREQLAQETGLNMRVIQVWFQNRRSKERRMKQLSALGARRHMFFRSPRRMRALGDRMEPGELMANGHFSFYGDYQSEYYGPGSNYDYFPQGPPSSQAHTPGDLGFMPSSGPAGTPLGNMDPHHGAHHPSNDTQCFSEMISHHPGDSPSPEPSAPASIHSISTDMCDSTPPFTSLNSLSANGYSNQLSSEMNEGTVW

Lhx5 (zebrafish) = target: T3, Lhx5 (zebrafish) (UniProt P52889)
T3 sequence: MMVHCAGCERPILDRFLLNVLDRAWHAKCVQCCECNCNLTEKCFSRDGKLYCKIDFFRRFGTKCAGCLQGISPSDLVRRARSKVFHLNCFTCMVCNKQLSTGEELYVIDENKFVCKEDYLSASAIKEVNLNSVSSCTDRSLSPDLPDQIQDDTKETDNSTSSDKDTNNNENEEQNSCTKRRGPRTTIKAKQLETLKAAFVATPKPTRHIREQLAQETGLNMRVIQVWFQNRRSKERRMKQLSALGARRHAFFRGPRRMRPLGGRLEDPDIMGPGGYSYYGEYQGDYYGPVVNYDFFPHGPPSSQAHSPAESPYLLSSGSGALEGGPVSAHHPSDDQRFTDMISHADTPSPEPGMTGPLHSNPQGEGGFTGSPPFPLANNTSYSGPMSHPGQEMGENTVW

Measured: binding

Skor2 (zebrafish)
binds: all assays above
